From the supplement of paper PMC4604168 (melanoma cell lines)
This is one part of the list. Single values are uncertain, as repeats are few or missing.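 The apoptosis fraction was the count of cleaved-PARP antibody-stained nuclei relative to all DNA-stained nuclei, imaged in 1,536-well plates. Screening doses were set so most cells survived, and baseline and induced cleaved-PARP levels vary greatly across cell lines.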

Assays:
Test in all cases: cleaved PARP positive nuclei fraction relative to DMSO control; melanoma cells; higher = more apoptosis
Conditions in all cases: library dose: low library concentration; 72 h
A101D = test system: A101D
A2058 = test system: A2058
A375 = test system: A375
C32 = test system: C32
CBRC008 = test system: CBRC008 (line from a melanoma biopsy)
CBRC013 = test system: CBRC013 (line from a melanoma biopsy)
CBRC014 = test system: CBRC014 (line from a melanoma biopsy)
CBRC016 = test system: CBRC016 (line from a melanoma biopsy)
CBRC017 = test system: CBRC017 (line from a melanoma biopsy)
COLO792 = test system: COLO792
COLO800 = test system: COLO800
COLO829 = test system: COLO829
G361 = test system: G361
IPC-298 = test system: IPC-298
IST-MEL1 = test system: IST-MEL1
LOXIMVI = test system: LOXIMVI
MEL-HO = test system: MEL-HO
501Mel = test system: 501Mel
LB2518-MEL = test system: LB2518-MEL
CBRC034 = test system: CBRC034 (line from a melanoma biopsy)

SMILES | cleaved PARP positive nuclei fraction (A101D) | cleaved PARP positive nuclei fraction (A2058) | cleaved PARP positive nuclei fraction (A375) | cleaved PARP positive nuclei fraction (C32) | cleaved PARP positive nuclei fraction (CBRC008) | cleaved PARP positive nuclei fraction (CBRC013) | cleaved PARP positive nuclei fraction (CBRC014) | cleaved PARP positive nuclei fraction (CBRC016) | cleaved PARP positive nuclei fraction (CBRC017) | cleaved PARP positive nuclei fraction (COLO792) | cleaved PARP positive nuclei fraction (COLO800) | cleaved PARP positive nuclei fraction (COLO829) | cleaved PARP positive nuclei fraction (G361) | cleaved PARP positive nuclei fraction (IPC-298) | cleaved PARP positive nuclei fraction (IST-MEL1) | cleaved PARP positive nuclei fraction (LOXIMVI) | cleaved PARP positive nuclei fraction (MEL-HO) | cleaved PARP positive nuclei fraction (501Mel) | cleaved PARP positive nuclei fraction (LB2518-MEL) | cleaved PARP positive nuclei fraction (CBRC034)
Cc1ccc(Nc2nccc(N(C)c3ccc4c(C)n(C)nc4c3)n2)cc1S(N)(=O)=O [Pazopanib] + C=CCn1c(=O)c2cnc(Nc3ccc(N4CCN(C)CC4)cc3)nc2n1-c1cccc(C(C)(C)O)n1 [MK1775] (first compound 0.4 µM, partner dose 0.02 µM) | 218% | 38.3% | 233% | 65.2% | 43.9% | 67.2% | 93.6% | 109% | 115% | 85.1% | 40.7% | 152% | 149% | 121% | 271% | 182% | 130% |  |  | 
CC[C@]1(O)C[C@H]2CN(CCc3c([nH]c4ccccc34)[C@@](C(=O)OC)(c3cc4c(cc3OC)N(C=O)[C@H]3[C@@](O)(C(=O)OC)[C@H](OC(C)=O)[C@]5(CC)C=CCN6CC[C@]43[C@@H]65)C2)C1 [vincristine] + CCN(CC)CCCCNc1ncc2cc(-c3cc(OC)cc(OC)c3)c(NC(=O)NC(C)(C)C)nc2n1 [PD173074] (first compound 0.0001 µM, partner dose 0.1 µM) | 42.7% | 394% |  | 254% | 85.3% |  | 108% | 61.5% | 75.6% | 219% | 85.3% | 160% | 79.6% | 227% | 74% | 151% |  | 25.4% | 64.4% | 
O=C(Nc1cc(C(F)(F)F)cc(C(F)(F)F)c1)c1cc(Cl)ccc1O + C[C@]1(c2nc3c(C(N)=O)cccc3[nH]2)CCCN1 [Veliparib] (first compound 0.016 µM, partner dose 1.4 µM) | 105% | 120% | 136% | 62.1% | 121% |  | 95.9% | 147% | 101% | 119% | 79.3% | 160% | 41.6% | 185% | 111% | 68% | 226% |  |  | 64%
N#CC[C@H](C1CCCC1)n1cc(-c2ncnc3[nH]ccc23)cn1 [ruxolitinib] + C=CCn1c(=O)c2cnc(Nc3ccc(N4CCN(C)CC4)cc3)nc2n1-c1cccc(C(C)(C)O)n1 [MK1775] (first compound 1 µM, partner dose 0.02 µM) | 93.3% | 53.6% | 129% | 125% | 62.2% | 145% | 83.5% | 60% | 114% | 79% | 11.9% | 90.6% | 44.6% | 98.7% | 51.4% | 73.8% | 37.9% |  |  | 
Cc1ccc(Nc2nccc(N(C)c3ccc4c(C)n(C)nc4c3)n2)cc1S(N)(=O)=O [Pazopanib] + Oc1nc(-c2ccc(C(F)(F)F)cc2)nc2c1CSCC2 [XAV939] (first compound 0.4 µM, partner dose 2 µM) | 39% | 65.9% |  | 65.9% | 114% |  | 108% | 53.6% | 69.4% | 31.3% | 89.1% | 139% | 142% | 54.6% | 108% | 121% |  | 85.2% | 77.1% | 
CC[C@]1(O)C[C@H]2CN(CCc3c([nH]c4ccccc34)[C@@](C(=O)OC)(c3cc4c(cc3OC)N(C=O)[C@H]3[C@@](O)(C(=O)OC)[C@H](OC(C)=O)[C@]5(CC)C=CCN6CC[C@]43[C@@H]65)C2)C1 [vincristine] + CC(C)CCN1c2nc(Nc3cc(F)c(O)c(F)c3)ncc2N(C)C(=O)C1C [BID1870] (first compound 0.0001 µM, partner dose 0.2 µM) | 16.2% | 801% |  | 381% | 886% |  | 236% | 231% | 104% | 125% | 133% | 164% | 85% | 33% | 166% | 426% |  | 84.6% | 77.3% | 
N#CC[C@H](C1CCCC1)n1cc(-c2ncnc3[nH]ccc23)cn1 [ruxolitinib] + Oc1nc(-c2ccc(C(F)(F)F)cc2)nc2c1CSCC2 [XAV939] (first compound 1 µM, partner dose 2 µM) | 6.52% | 157% |  | 181% | 74.5% |  | 85.3% | 248% | 127% |  | 60.6% | 21.8% | 75.4% | 69.8% | 108% | 89.8% |  | 127% | 25.2% | 
Cc1cc(Nc2cc(N3CCN(C)CC3)nc(Sc3ccc(NC(=O)C4CC4)cc3)n2)n[nH]1 [Tozasertib] + Cc1cc(N2CCOCC2)cc2[nH]c(-c3c(NC[C@@H](O)c4cccc(Cl)c4)cc[nH]c3=O)nc12 [BMS536924] (first compound 0.006 µM, partner dose 0.2 µM) | 168% | 90.7% | 77.4% | 132% | 273% | 112% | 81.1% | 89.6% | 81% | 167% | 166% | 104% | 112% | 135% | 50.2% | 57.9% | 117% |  |  | 
O=C(Nc1cc(C(F)(F)F)cc(C(F)(F)F)c1)c1cc(Cl)ccc1O + COc1cc(N2CCC(N3CCN(C)CC3)CC2)ccc1Nc1ncc(Cl)c(Nc2ccccc2S(=O)(=O)C(C)C)n1 [NVP-TAE684] (first compound 0.016 µM, partner dose 0.08 µM) | 9.98% | 90.5% |  | 53.5% | 191% |  | 108% | 63.1% | 87.9% | 105% | 99.9% | 87.7% | 76.8% | 97.3% | 212% | 89.5% |  | 229% | 180% | 
O=c1[nH]nc(Sc2ncc([N+](=O)[O-])s2)n1-c1ccc2c(c1)OCCO2 + C=CCn1c(=O)c2cnc(Nc3ccc(N4CCN(C)CC4)cc3)nc2n1-c1cccc(C(C)(C)O)n1 [MK1775] (first compound 0.2 µM, partner dose 0.02 µM) | 96.9% | 138% | 128% | 165% | 116% | 89% | 99.4% | 121% | 113% | 81.5% | 87% | 70.6% | 145% | 139% | 99% | 50.9% | 64.7% |  |  | 
Cc1cc(Nc2cc(N3CCN(C)CC3)nc(Sc3ccc(NC(=O)C4CC4)cc3)n2)n[nH]1 [Tozasertib] + Cc1cc(Nc2cc(N3CCN(C)CC3)nc(/C=C/c3ccccc3)n2)n[nH]1 [ENMD2076] (first compound 0.006 µM, partner dose 0.04 µM) | 110% | 107% | 210% | 67.3% | 117% |  | 100% | 117% | 115% | 68% | 78.9% | 149% | 78.9% | 90.3% | 32.6% | 127% | 43.9% |  |  | 89%
O=C(Nc1cc(C(F)(F)F)cc(C(F)(F)F)c1)c1cc(Cl)ccc1O + C=CCn1c(=O)c2cnc(Nc3ccc(N4CCN(C)CC4)cc3)nc2n1-c1cccc(C(C)(C)O)n1 [MK1775] (first compound 0.016 µM, partner dose 0.02 µM) | 102% | 94.4% | 233% | 29.9% | 54.2% | 131% | 123% | 275% | 120% | 97.7% | 93.1% | 42.2% | 116% | 278% | 220% | 291% | 112% |  |  | 
COc1cc([C@@H]2c3cc4c(cc3[C@@H](O[C@@H]3O[C@@H]5CO[C@@H](C)O[C@H]5[C@H](O)[C@H]3O)[C@H]3COC(=O)[C@H]23)OCO4)cc(OC)c1O [etoposide] + O=C(O)C(=O)Nc1sc2c(c1C(=O)O)CCNC2 [TCS401] (first compound 0.02 µM, partner dose 1.66667 µM) | 7.26% | 20.6% |  | 6.33% |  |  | 78.1% | 77.6% | 75.3% | 102% | 94.5% | 149% | 125% | 49.6% | 27.9% | 49.3% |  | 65.4% | 70.8% | 
Cc1ccc(Nc2nccc(N(C)c3ccc4c(C)n(C)nc4c3)n2)cc1S(N)(=O)=O [Pazopanib] + O=C(O)c1ccc(-c2c[nH]c3ncc(-c4ccccc4)cc23)cc1C1CCCC1 [GSK650394] (first compound 0.4 µM, partner dose 0.16 µM) | 69.4% | 74.1% | 247% | 99.9% | 60.1% | 128% | 94.6% | 88.8% | 106% | 102% | 73.9% | 26.1% | 51.7% | 57.1% | 55.1% | 347% | 133% |  |  | 
COc1cc([C@@H]2c3cc4c(cc3[C@@H](O[C@@H]3O[C@@H]5CO[C@@H](C)O[C@H]5[C@H](O)[C@H]3O)[C@H]3COC(=O)[C@H]23)OCO4)cc(OC)c1O [etoposide] + Oc1cc(-c2nc(-c3ccccc3)[nH]c2-c2ccncc2)ccc1Cl [L779450] (first compound 0.02 µM, partner dose 0.2 µM) | 30.5% | 80.8% |  | 190% | 73.7% |  | 93.7% | 19.7% | 96.8% | 191% | 171% |  |  | 106% | 116% | 167% |  | 83.5% | 136% | 
O=C(/C=C/c1cccnc1)NCCCCC1CCN(C(=O)c2ccccc2)CC1 + Cc1cc([N+](=O)[O-])ccc1NS(=O)(=O)c1cc(Cl)ccc1Cl [FH535] (first compound 0.01 µM, partner dose 1 µM) | 29.1% | 21.6% |  | 55.6% | 622% |  | 130% | 1370% | 678% | 418% | 158% | 403% | 2900% | 118% | 161% | 90.4% |  | 71% | 68.4% | 

Quoted at random: two records from the list.
SMILES | cleaved PARP positive nuclei fraction (A101D) | cleaved PARP positive nuclei fraction (A2058) | cleaved PARP positive nuclei fraction (A375) | cleaved PARP positive nuclei fraction (C32) | cleaved PARP positive nuclei fraction (CBRC008) | cleaved PARP positive nuclei fraction (CBRC013) | cleaved PARP positive nuclei fraction (CBRC014) | cleaved PARP positive nuclei fraction (CBRC016) | cleaved PARP positive nuclei fraction (CBRC017) | cleaved PARP positive nuclei fraction (COLO792) | cleaved PARP positive nuclei fraction (COLO800) | cleaved PARP positive nuclei fraction (COLO829) | cleaved PARP positive nuclei fraction (G361) | cleaved PARP positive nuclei fraction (IPC-298) | cleaved PARP positive nuclei fraction (IST-MEL1) | cleaved PARP positive nuclei fraction (LOXIMVI) | cleaved PARP positive nuclei fraction (MEL-HO) | cleaved PARP positive nuclei fraction (501Mel) | cleaved PARP positive nuclei fraction (LB2518-MEL) | cleaved PARP positive nuclei fraction (CBRC034)
N#CC[C@H](C1CCCC1)n1cc(-c2ncnc3[nH]ccc23)cn1 [ruxolitinib] + C=CCn1c(=O)c2cnc(Nc3ccc(N4CCN(C)CC4)cc3)nc2n1-c1cccc(C(C)(C)O)n1 [MK1775] (first compound 1 µM, partner dose 0.02 µM) | 93.3% | 53.6% | 129% | 125% | 62.2% | 145% | 83.5% | 60% | 114% | 79% | 11.9% | 90.6% | 44.6% | 98.7% | 51.4% | 73.8% | 37.9% |  |  | 
CC[C@]1(O)C[C@H]2CN(CCc3c([nH]c4ccccc34)[C@@](C(=O)OC)(c3cc4c(cc3OC)N(C=O)[C@H]3[C@@](O)(C(=O)OC)[C@H](OC(C)=O)[C@]5(CC)C=CCN6CC[C@]43[C@@H]65)C2)C1 [vincristine] + CCN(CC)CCCCNc1ncc2cc(-c3cc(OC)cc(OC)c3)c(NC(=O)NC(C)(C)C)nc2n1 [PD173074] (first compound 0.0001 µM, partner dose 0.1 µM) | 42.7% | 394% |  | 254% | 85.3% |  | 108% | 61.5% | 75.6% | 219% | 85.3% | 160% | 79.6% | 227% | 74% | 151% |  | 25.4% | 64.4% | 
